The subject of test [1] is MDA-MB-453. Kind of test: drug sensitivity score (DSS), single agent (DSS (weighted AUC score)); higher = more sensitive (stronger viability decrease); extreme values may be limits of the assay. The note with it: BLU9931 0 nM; 72 h. A digest of the protocol: (§1)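 Cells of the MDA-MB-453 line (2000 per well) were added in medium, with or without 100 nM final FGFR4 inhibitor, to 384-well plates predispensed with FIMM Oncology set compounds at five 10-fold dilutions covering a 10,000-fold range. After 72 h at 37 °C, 5% CO2, CellTiterGlo 2.0 read cellular ATP. Percent viability came from per-plate normalisation to control wells, and the drug sensitivity score was defined as a weighted area under a four-parameter logistic fit.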

Test [2] deals with MDA-MB-453. Kind of test: drug sensitivity score (DSS), in combination with BLU9931 (DSS (weighted AUC score)); higher = more sensitive (stronger viability decrease); extreme values may be limits of the assay. To be noted: BLU9931 100 nM; 72 h. The method in brief:
as §1

The values below come from the supplement of paper PMC7224384.

Take `C[C@@H]1C[C@H](N)C[C@H](c2ccncc2NC(=O)c2ccc(F)c(-c3c(F)cccc3F)n2)C1` [PIM-447]: the drug sensitivity score was determined as 1.9 with MDA-MB-453 [1] and 1.5 in the test on MDA-MB-453 [2].
